# Experimental data published in the supplement of paper PMC8728848.
# Some of the results follow.
# Legend:
# Test in all cases: glycan array binding signal (z-score within array); higher = stronger binding
# Details in all cases: glycan notation: IUPAC condensed, linker removed
# [1] = target: Gal(b1-3)[Fuc(a1-4)]GlcNAc(b1-3)Gal(b1-4)[Fuc(a1-3)]GlcNAc
# Procedure, shortened: (§1)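 Negative Z-scores can be read as non-binding. The Z-score is calculated within each array and then averaged across arrays of one protein sequence at different concentrations or buffers and across linkers. Arrays, 3228 in all, were curated from the Consortium for Functional Glycomics database and kept only where the protein sequence was available.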
# [2] = target: Gal(b1-3)[Fuc(a1-4)]GlcNAc(b1-6)GalNAc
# Procedure, shortened: as §1
# [3] = target: Gal(b1-3)[GlcNAc(b1-6)]GalNAc
# Procedure, shortened: as §1
# [4] = target: Gal(b1-3)[Neu5Ac(a2-6)]GalNAc
# Procedure, shortened: as §1
# [5] = target: Gal(b1-3)[Neu5Ac(a2-6)]GlcNAc(b1-4)Gal(b1-4)Glc
# Procedure, shortened: as §1
# [6] = target: Gal(b1-3)[Neu5Ac(b2-6)]GalNAc
# Procedure, shortened: as §1
# Gal(b1-4)Gal = target: Gal(b1-4)Gal
# Procedure, shortened: as §1
# [7] = target: Gal(b1-4)GalNAc(a1-3)[Fuc(a1-2)]Gal(b1-4)GlcNAc
# Procedure, shortened: as §1
# [8] = target: Gal(b1-4)GalNAc(b1-3)[Fuc(a1-2)]Gal(b1-4)GlcNAc
# Procedure, shortened: as §1
# Gal(b1-4)Glc = target: Gal(b1-4)Glc
# Procedure, shortened: as §1
# Gal(b1-4)Glc6S = target: Gal(b1-4)Glc6S
# Procedure, shortened: as §1
# Gal(b1-4)GlcNAc = target: Gal(b1-4)GlcNAc
# Procedure, shortened: as §1
# [9] = target: Gal(b1-4)GlcNAc(a1-6)Gal(b1-4)GlcNAc
# Procedure, shortened: as §1
# Gal(b1-4)GlcNAc(b1-2)Man = target: Gal(b1-4)GlcNAc(b1-2)Man
# Procedure, shortened: as §1
# [10] = target: Gal(b1-4)GlcNAc(b1-2)Man(a1-3)Man(b1-4)GlcNAc(b1-4)GlcNAc
# Procedure, shortened: as §1
# [11] = target: Gal(b1-4)GlcNAc(b1-2)Man(a1-3)[Gal(b1-4)GlcNAc(b1-2)Man(a1-6)]Man(b1-4)GlcNAc(b1-4)GlcNAc
# Procedure, shortened: as §1
# [12] = target: Gal(b1-4)GlcNAc(b1-2)Man(a1-3)[Gal(b1-4)GlcNAc(b1-2)Man(a1-6)]Man(b1-4)GlcNAc(b1-4)[Fuc(a1-6)]GlcNAc
# Procedure, shortened: as §1
# [13] = target: Gal(b1-4)GlcNAc(b1-2)Man(a1-3)[Gal(b1-4)GlcNAc(b1-2)Man(a1-6)][Gal(b1-4)GlcNAc(b1-4)]Man(b1-4)GlcNAc(b1-4)[Fuc(a1-6)]GlcNAc
# Procedure, shortened: as §1
# [14] = target: Gal(b1-4)GlcNAc(b1-2)Man(a1-3)[Gal(b1-4)GlcNAc(b1-2)Man(a1-6)][GlcNAc(b1-4)]Man(b1-4)GlcNAc(b1-4)[Fuc(a1-6)]GlcNAc
# Procedure, shortened: as §1
# [15] = target: Gal(b1-4)GlcNAc(b1-2)Man(a1-3)[GlcNAc(b1-2)Man(a1-6)]Man(b1-4)GlcNAc(b1-4)GlcNAc
# Procedure, shortened: as §1
# [16] = target: Gal(b1-4)GlcNAc(b1-2)Man(a1-3)[GlcNAc(b1-4)][Gal(b1-4)GlcNAc(b1-2)Man(a1-6)]Man(b1-4)GlcNAc(b1-4)GlcNAc
# Procedure, shortened: as §1
# [17] = target: Gal(b1-4)GlcNAc(b1-2)Man(a1-3)[Man(a1-6)]Man(b1-4)GlcNAc(b1-4)GlcNAc
# Procedure, shortened: as §1
# [18] = target: Gal(b1-4)GlcNAc(b1-2)Man(a1-6)Man(b1-4)GlcNAc(b1-4)GlcNAc
# Procedure, shortened: as §1
# [19] = target: Gal(b1-4)GlcNAc(b1-2)Man(a1-6)[GlcNAc(b1-2)Man(a1-3)]Man(b1-4)GlcNAc(b1-4)GlcNAc
# Procedure, shortened: as §1
# [20] = target: Gal(b1-4)GlcNAc(b1-2)Man(a1-6)[Man(a1-3)]Man(b1-4)GlcNAc(b1-4)GlcNAc
# Procedure, shortened: as §1
# [21] = target: Gal(b1-4)GlcNAc(b1-2)[Gal(b1-4)GlcNAc(b1-4)]Man(a1-3)[Gal(b1-4)GlcNAc(b1-2)Man(a1-6)]Man(b1-4)GlcNAc(b1-4)GlcNAc
# Procedure, shortened: as §1
# [22] = target: Gal(b1-4)GlcNAc(b1-2)[Gal(b1-4)GlcNAc(b1-4)]Man(a1-3)[Gal(b1-4)GlcNAc(b1-2)[Gal(b1-4)GlcNAc(b1-6)]Man(a1-6)]Man(b1-4)GlcNAc(b1-4)GlcNAc
# Procedure, shortened: as §1
# [23] = target: Gal(b1-4)GlcNAc(b1-2)[Gal(b1-4)GlcNAc(b1-4)]Man(a1-3)[GlcNAc(b1-4)][Gal(b1-4)GlcNAc(b1-2)Man(a1-6)]Man(b1-4)GlcNAc(b1-4)GlcNAc
# Procedure, shortened: as §1
# [24] = target: Gal(b1-4)GlcNAc(b1-2)[Gal(b1-4)GlcNAc(b1-4)]Man(a1-3)[GlcNAc(b1-4)][Gal(b1-4)GlcNAc(b1-2)[Gal(b1-4)GlcNAc(b1-6)]Man(a1-6)]Man(b1-4)GlcNAc(b1-4)GlcNAc
# Procedure, shortened: as §1
# [25] = target: Gal(b1-4)GlcNAc(b1-2)[Gal(b1-4)GlcNAc(b1-6)]Man(a1-6)[Gal(b1-4)GlcNAc(b1-2)Man(a1-3)]Man(b1-4)GlcNAc(b1-4)GlcNAc
# Procedure, shortened: as §1
# [26] = target: Gal(b1-4)GlcNAc(b1-2)[Gal(b1-4)GlcNAc(b1-6)]Man(a1-6)[Gal(b1-4)GlcNAc(b1-2)Man(a1-3)]Man(b1-4)GlcNAc(b1-4)[Fuc(a1-6)]GlcNAc
# Procedure, shortened: as §1
# [27] = target: Gal(b1-4)GlcNAc(b1-2)[Gal(b1-4)GlcNAc(b1-6)]Man(a1-6)[GlcNAc(b1-4)][Gal(b1-4)GlcNAc(b1-2)Man(a1-3)]Man(b1-4)GlcNAc(b1-4)GlcNAc
# Procedure, shortened: as §1
# [28] = target: Gal(b1-4)GlcNAc(b1-2)[Gal(b1-4)GlcNAc(b1-6)]Man(a1-6)[GlcNAc(b1-4)][Gal(b1-4)GlcNAc(b1-2)[Gal(b1-4)GlcNAc(b1-4)]Man(a1-3)]Man(b1-4)GlcNAc(b1-4)[Fuc(a1-6)]GlcNAc
# Procedure, shortened: as §1
# [29] = target: Gal(b1-4)GlcNAc(b1-3)Gal(b1-3)GalNAc
# Procedure, shortened: as §1
# [30] = target: Gal(b1-4)GlcNAc(b1-3)Gal(b1-3)GlcNAc
# Procedure, shortened: as §1
# [31] = target: Gal(b1-4)GlcNAc(b1-3)Gal(b1-4)Glc
# Procedure, shortened: as §1
# [32] = target: Gal(b1-4)GlcNAc(b1-3)Gal(b1-4)GlcNAc
# Procedure, shortened: as §1
# [33] = target: Gal(b1-4)GlcNAc(b1-3)Gal(b1-4)GlcNAc(b1-2)Man(a1-3)[Gal(b1-4)GlcNAc(b1-3)Gal(b1-4)GlcNAc(b1-2)Man(a1-6)]Man(b1-4)GlcNAc(b1-4)GlcNAc
# Procedure, shortened: as §1
binder,measurement,setting,value
"RsaA-N-term (Caulobacter crescentus), P35828 (protein) MAYTTAQLVTAYTNANLGKAPDAATTLTLDAYATQTQTGGLSDAAALTNTLKLVNSTTAVAIQTYQFFTGVAPSAAGLDFLVDSTTNTNDLNDAYYSKFAQENRFINFSINLATGAGAGATAFAAAYTGVSYAQTVATAYDKIIGNAVATAAGVDVAAAVAFLSRQANIDYLTAFVRANTPFTAAADIDLAVKAALIGTILNAATVSGIGGYATATAAMINDLSDGALSTDNAAGVNLFTAYPSSGVSGSTLSLTTGTDTLTGTANNDTFVAGEVAGDGSGWSHPQFEKGG",glycan array binding signal (z-score),[1],-1.17
same,glycan array binding signal (z-score),[2],-1.19
same,glycan array binding signal (z-score),[3],-0.825
same,glycan array binding signal (z-score),[4],-0.329
same,glycan array binding signal (z-score),[5],-0.54
same,glycan array binding signal (z-score),[6],0.215
same,glycan array binding signal (z-score),Gal(b1-4)Gal,-0.075
same,glycan array binding signal (z-score),[7],-0.122
same,glycan array binding signal (z-score),[8],0.297
same,glycan array binding signal (z-score),Gal(b1-4)Glc,-0.545
same,glycan array binding signal (z-score),Gal(b1-4)Glc6S,-0.918
same,glycan array binding signal (z-score),Gal(b1-4)GlcNAc,-0.339
same,glycan array binding signal (z-score),[9],1.12
same,glycan array binding signal (z-score),Gal(b1-4)GlcNAc(b1-2)Man,-0.545
same,glycan array binding signal (z-score),[10],1.23
same,glycan array binding signal (z-score),[11],-0.966
same,glycan array binding signal (z-score),[12],-0.269
same,glycan array binding signal (z-score),[13],-0.705
same,glycan array binding signal (z-score),[14],-0.708
same,glycan array binding signal (z-score),[15],-0.671
same,glycan array binding signal (z-score),[16],-1.29
same,glycan array binding signal (z-score),[17],0.423
same,glycan array binding signal (z-score),[18],-0.473
same,glycan array binding signal (z-score),[19],0.415
same,glycan array binding signal (z-score),[20],0.32
same,glycan array binding signal (z-score),[21],0.483
same,glycan array binding signal (z-score),[22],-0.496
same,glycan array binding signal (z-score),[23],1.51
same,glycan array binding signal (z-score),[24],-0.581
same,glycan array binding signal (z-score),[25],-0.57
same,glycan array binding signal (z-score),[26],0.599
same,glycan array binding signal (z-score),[27],-1.22
same,glycan array binding signal (z-score),[28],-0.744
same,glycan array binding signal (z-score),[29],0.424
same,glycan array binding signal (z-score),[30],-1.03
same,glycan array binding signal (z-score),[31],-0.696
same,glycan array binding signal (z-score),[32],-0.079
same,glycan array binding signal (z-score),[33],3.15

# Two entries drawn at random from the list so far:
binder,measurement,setting,value
"RsaA-N-term (Caulobacter crescentus), P35828 (protein) MAYTTAQLVTAYTNANLGKAPDAATTLTLDAYATQTQTGGLSDAAALTNTLKLVNSTTAVAIQTYQFFTGVAPSAAGLDFLVDSTTNTNDLNDAYYSKFAQENRFINFSINLATGAGAGATAFAAAYTGVSYAQTVATAYDKIIGNAVATAAGVDVAAAVAFLSRQANIDYLTAFVRANTPFTAAADIDLAVKAALIGTILNAATVSGIGGYATATAAMINDLSDGALSTDNAAGVNLFTAYPSSGVSGSTLSLTTGTDTLTGTANNDTFVAGEVAGDGSGWSHPQFEKGG",glycan array binding signal (z-score),[27],-1.22
same,glycan array binding signal (z-score),Gal(b1-4)GlcNAc,-0.339
